Experimental data published in article PMC4841779.
These are yes or no findings as the source states them, for the method shown. Some binding calls cover weakened binding; strength is not graded here. Sequences can lack the tags named with a protein.

Chains of the proteins cited; added tags and fusions are not shown. Residues count along the entry.
UniProt P07947, residues 158-255: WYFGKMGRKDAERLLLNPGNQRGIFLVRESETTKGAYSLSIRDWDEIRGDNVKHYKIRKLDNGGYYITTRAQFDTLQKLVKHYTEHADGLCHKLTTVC
UniProt P46109, residues 14-102: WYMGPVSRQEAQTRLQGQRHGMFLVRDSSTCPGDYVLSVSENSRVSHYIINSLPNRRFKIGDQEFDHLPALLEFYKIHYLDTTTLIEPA
UniProt P06241, residues 149-246: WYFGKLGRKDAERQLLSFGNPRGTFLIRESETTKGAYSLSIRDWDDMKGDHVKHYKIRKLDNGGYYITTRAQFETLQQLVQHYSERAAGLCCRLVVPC
UniProt P46108, residues 13-118: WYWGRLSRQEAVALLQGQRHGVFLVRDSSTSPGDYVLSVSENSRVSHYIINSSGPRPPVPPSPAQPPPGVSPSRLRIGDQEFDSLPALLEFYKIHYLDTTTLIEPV

Target: EGFR, tyrosine-phosphorylated (~195 kDa band of A431 lysate) (human (endogenous in A431)) (UniProt P00533)
Test: far-Western, overlay or dot blot; lysates of starved A431 cells stimulated with 25 ng/ml EGF (60-min time course; also 1 and 10 ng/ml EGF, or pervanadate), 20 μg per lane on LDS-PAGE, transferred to nitrocellulose; blotted 2 hr with 1–5 ng/ml recombinant GST-SH2/PTB labeled with GSH-HRP and anti-GST-HRP in 5% milk-TBST; bands identified by immunodepletion; only the binder purified

Row | Molecule | binding
1 | GST-YES SH2 domain probe (from UniProt P07947 158-255) (domain or fragment) | binds
2 | GST-ABL SH2 domain probe (from UniProt P00519 127-217) (domain or fragment) | binds
3 | GST-CRKL SH2 domain probe (from UniProt P46109 14-102) (domain or fragment) | binds
4 | GST-GRB7 SH2 domain probe (from UniProt Q14451 431-527) (domain or fragment) | binds
5 | GST-FYN SH2 domain probe (from UniProt P06241 149-246) (domain or fragment) | binds
6 | GST-CRK SH2 domain probe (from UniProt P46108 13-118) (domain or fragment) | binds
7 | GST-ARG SH2 domain probe (domain or fragment, UniProt P42684 173-263) WYHGPVSRSAAEYLLSSLINGSFLVRESESSPGQLSISLRYEGRVYHYRINTTADGKVYVTAESRFSTLAELVHHHSTVADGLVTTLHYPA | binds
8 | GST-GRB14 SH2 domain probe (domain or fragment, UniProt Q14449 439-535) WFHHKISRDEAQRLIIQQGLVDGVFLVRDSQSNPKTFVLSMSHGQKIKHFQIIPVEDDGEMFHTLDDGHTRFTDLIQLVEFYQLNKGVLPCKLKHYC | binds
9 | GST-EAT2 SH2 domain probe (domain or fragment, UniProt O14796 5-101) YYHGRLTKQDCETLLLKEGVDGNFLLRDSESIPGVLCLCVSFKNIVYTYRIFREKHGYYRIQTAEGSPKQVFPSLKELISKFEKPNQGMVVHLLKPI | binds
10 | GST-SHIP2 SH2 domain probe (domain or fragment, UniProt O15357 21-117) WYHRDLSRAAAEELLARAGRDGSFLVRDSESVAGAFALCVLYQKHVHTYRILPDGEDFLAVQTSQGVPVRRFQTLGELIGLYAQPNQGLVCALLLPV | binds
11 | GST-VAV2 SH2 domain probe (domain or fragment, UniProt P52735 673-767) WFAGNMERQQTDNLLKSHASGTYLIRERPAEAERFAISIKFNDEVKHIKVVEKDNWIHITEAKKFDSLLELVEYYQCHSLKESFKQLDTTLKYPY | binds
